Data source: PubChem BioAssay AID1259308 (NCATS, 2017)
Screen: 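Genes whose loss raises luciferase production in HEK293 cells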 (primary screen). System: human HEK293 embryonic kidney cells stably expressing firefly luciferase (HEK-CMV-Luc2-Hygro). Knock-down reagent: single siRNA against human genes, 0.8 pmol siRNA per well. Timing: 72 h. Read-out: 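Luciferase light (ONE-Glo) measured on one replicate plate set and viability (CellTiter-Glo) on the other, scaled to a negative control siRNA, with robust z-scores and luciferase per cell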. Direction: total luciferase, z-score and total luciferase, % of control: higher = more reporter protein produced; luciferase per cell, z-score: higher = more reporter output per viable cell; viable cells, % of control: higher = more viable cells. Active means: 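An siRNA counts as active if its total luciferase robust z-score exceeds 3; genes with two or more such siRNAs out of three were retested with fresh siRNAs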. Meaning of the calls: active = raised luciferase; inactive = no rise.
Shown is an unselected part of about 59,000 deposited reagents. About 1,510 of all reagents (2.6%) count as active. 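Calls use total luciferase alone and ignore viability, so some active siRNAs may act by altering cell number.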 A number with no mark means an inactive call.

no.	gene symbol	PubChem SID	total luciferase, z-score	total luciferase, % of control	luciferase per cell, z-score	viable cells, % of control
1	FAM91A1 (GeneID 157769)	SID160759557	-1.69	48.2	-1.97	90.4
2	FAM91A1 (GeneID 157769)	SID160759558	0.613	94.1	0.895	83
3	FAM91A1 (GeneID 157769)	SID160759559	-0.636	69.2	0.125	74.9
4	ITGB6 (GeneID 3694)	SID160776015	-0.621	69.5	-0.279	83.6
5	ITGB6 (GeneID 3694)	SID160776016	-0.295	76	0.446	75.5
6	ITGB6 (GeneID 3694)	SID160776017	-2.02	41.6	-0.655	55.3
7	GIGYF1 (GeneID 64599)	SID160747829	0.336	88.6	-0.323	108
8	GIGYF1 (GeneID 64599)	SID160747830	0.78	97.4	-0.0829	111
9	GIGYF1 (GeneID 64599)	SID160747831	-1.34	55.3	-0.367	68.1
10	TMC7 (GeneID 79905)	SID160749747	-0.454	72.8	-0.285	87.8
11	TMC7 (GeneID 79905)	SID160749748	-0.486	72.2	-0.589	94.2
12	TMC7 (GeneID 79905)	SID160749749	2.23	126	1.52	94.6
13	SIRT4 (GeneID 23409)	SID160736222	-0.272	76.5	-0.429	95.7
14	SIRT4 (GeneID 23409)	SID160736223	2.63	134	1.48	101
15	SIRT4 (GeneID 23409)	SID160736224	0.366	89.2	0.593	85.2
16	XPO1 (GeneID 7514)	SID160718906	-0.75	67	-0.133	77.5
17	XPO1 (GeneID 7514)	SID160718907	-0.679	68.4	-0.000761	76.4
18	XPO1 (GeneID 7514)	SID160718908	-0.862	64.7	0.105	70.4

Just “total luciferase, z-score” (3 entries from above):
TMC7 (GeneID 79905) [SID160749749]: 2.23
SIRT4 (GeneID 23409) [SID160736222]: -0.272
SIRT4 (GeneID 23409) [SID160736223]: 2.63

The results go on.
no.	gene symbol	PubChem SID	total luciferase, z-score	total luciferase, % of control	luciferase per cell, z-score	viable cells, % of control
19	RPSAP48 (GeneID 392262)	SID160733284	-0.951	63	-0.781	86.4
20	RPSAP48 (GeneID 392262)	SID160766746	-0.0414	81.1	1.83	56
21	RPSAP48 (GeneID 392262)	SID160766747	0.31	88.1	0.667	82.5
22	PARP16 (GeneID 54956)	SID160742593	-1.63	49.5	-1.16	74.9
23	PARP16 (GeneID 54956)	SID160742594	-0.0643	80.6	0.172	86.1
24	PARP16 (GeneID 54956)	SID160742595	-0.288	76.1	-0.0856	87
25	TTLL1 (GeneID 25809)	SID160737023	0.891	99.6	1.26	79.9
26	TTLL1 (GeneID 25809)	SID160737024	-0.554	70.9	-1.03	104
27	TTLL1 (GeneID 25809)	SID160737025	0.0058	82	0.258	85.6
28	SALL3 (GeneID 27164)	SID160738495	-0.0145	81.6	0.0222	90.7
29	SALL3 (GeneID 27164)	SID160738496	-1.01	61.7	-0.493	78.6
30	SALL3 (GeneID 27164)	SID160738497	-1.15	59	-0.548	76.1
31	CRTC1 (GeneID 23373)	SID160724321	-0.549	71	-0.709	95.6
32	CRTC1 (GeneID 23373)	SID160730842	0.194	85.7	0.0384	94.8
33	CRTC1 (GeneID 23373)	SID160736138	-0.339	75.2	0.0817	82.2
34	RPS2P8 (GeneID 440589)	SID160725400	-1.44	53.3	-0.935	76.1
35	RPS2P8 (GeneID 440589)	SID160725401	-1.01	61.7	-1.88	113
36	RPS2P8 (GeneID 440589)	SID160767822	2.76	137	0.807	124
37	LOC642947 (retired record) (GeneID 642947)	SID160733793	3.97 (active)	161	3.4	73.4
38	LOC642947 (retired record) (GeneID 642947)	SID160768740	0.539	92.6	0.318	95.2
39	LOC642947 (retired record) (GeneID 642947)	SID160768741	1.96	121	1.54	90.1
